Laboratory results taken from paper doi:10.1101/2023.04.14.536847.
No constants are given. Whether binding was seen depends on the method and setting. Binding seen in cells or lysates may run through a third protein. These calls come from enrichment with a bait or labelling near it, and not all partners need be listed.

Target: CdbS-FLAG (Myxococcus xanthus)
Test: affinity purification with mass spectrometry

binding | Binder
binds | DnaB helicase (protein, UniProt Q1D285 1-456) MENVHEFREGRKVHEDLAAERAVLGAVLADNTLIAAVGEVVHPEDFSSPAHAQIFEAMLKLDGQSRQVDHLTLAEELKVLGHLVSVGGPAYLMRLDQVVPIASNAVQYAQIVKDQAIRRRLAQAGREIQDLASQETGELEVLLDEAERKVFLLAEKKREGDLRPVSELMEHTLDLLDKMKAAATGITGLSTGYIDLDNQLTGLHAGELIILAARPGIGKTSFAMNIAVHAALKENKAVGIFSLEMPADQLLMRLLASTARVDMKKLRGGRLTPHDEEKFQEMAGALYNAPIYIDDSGGLSPFDLRAKARRVKQRDPRLSLIVIDYLQLMHQKGKVESRQLEVAEISRALKQLAKELEVPIIALSQLSRKVEDRKDGKPLLSDLRESGSIEQDADVVMFIHRETSDEAGPDGQPAQQSNTVIPVELIIAKQRNGPIGSIDLVFLAEYTRFESRSRSE
binds | GrpS (protein, UniProt P95333 1-255) MTVIEVEASGPSTPVEAEASASPADTTSPPSDAEATPSEDVAALRQEVESLKAQLEFSQAKGRETMERLREAHERAKEAQERTVRHAADLENYRKRAQKEKEEVQRFGSEKLLKDLLPVMDNLDRAIDAAAKSPDLDSFEKGVAMTRKSFEDALGRHGVKGFSAKGQVFDPRVHEAIQQVETADVPAGHVAYEVVRGFYLNERLVRPAMVVVARAPAEPVAAAEPPAVAEPATATTDTEAPAAPAQSENSSGGSQ
